Laboratory results: the supplement of paper PMC10849652
The other results are listed elsewhere or left out.

Chains of the proteins cited; added tags and fusions are not shown. Lines headed by an entry give the natural chain unless they say otherwise; changes in a name come on top.
UniProt O15067: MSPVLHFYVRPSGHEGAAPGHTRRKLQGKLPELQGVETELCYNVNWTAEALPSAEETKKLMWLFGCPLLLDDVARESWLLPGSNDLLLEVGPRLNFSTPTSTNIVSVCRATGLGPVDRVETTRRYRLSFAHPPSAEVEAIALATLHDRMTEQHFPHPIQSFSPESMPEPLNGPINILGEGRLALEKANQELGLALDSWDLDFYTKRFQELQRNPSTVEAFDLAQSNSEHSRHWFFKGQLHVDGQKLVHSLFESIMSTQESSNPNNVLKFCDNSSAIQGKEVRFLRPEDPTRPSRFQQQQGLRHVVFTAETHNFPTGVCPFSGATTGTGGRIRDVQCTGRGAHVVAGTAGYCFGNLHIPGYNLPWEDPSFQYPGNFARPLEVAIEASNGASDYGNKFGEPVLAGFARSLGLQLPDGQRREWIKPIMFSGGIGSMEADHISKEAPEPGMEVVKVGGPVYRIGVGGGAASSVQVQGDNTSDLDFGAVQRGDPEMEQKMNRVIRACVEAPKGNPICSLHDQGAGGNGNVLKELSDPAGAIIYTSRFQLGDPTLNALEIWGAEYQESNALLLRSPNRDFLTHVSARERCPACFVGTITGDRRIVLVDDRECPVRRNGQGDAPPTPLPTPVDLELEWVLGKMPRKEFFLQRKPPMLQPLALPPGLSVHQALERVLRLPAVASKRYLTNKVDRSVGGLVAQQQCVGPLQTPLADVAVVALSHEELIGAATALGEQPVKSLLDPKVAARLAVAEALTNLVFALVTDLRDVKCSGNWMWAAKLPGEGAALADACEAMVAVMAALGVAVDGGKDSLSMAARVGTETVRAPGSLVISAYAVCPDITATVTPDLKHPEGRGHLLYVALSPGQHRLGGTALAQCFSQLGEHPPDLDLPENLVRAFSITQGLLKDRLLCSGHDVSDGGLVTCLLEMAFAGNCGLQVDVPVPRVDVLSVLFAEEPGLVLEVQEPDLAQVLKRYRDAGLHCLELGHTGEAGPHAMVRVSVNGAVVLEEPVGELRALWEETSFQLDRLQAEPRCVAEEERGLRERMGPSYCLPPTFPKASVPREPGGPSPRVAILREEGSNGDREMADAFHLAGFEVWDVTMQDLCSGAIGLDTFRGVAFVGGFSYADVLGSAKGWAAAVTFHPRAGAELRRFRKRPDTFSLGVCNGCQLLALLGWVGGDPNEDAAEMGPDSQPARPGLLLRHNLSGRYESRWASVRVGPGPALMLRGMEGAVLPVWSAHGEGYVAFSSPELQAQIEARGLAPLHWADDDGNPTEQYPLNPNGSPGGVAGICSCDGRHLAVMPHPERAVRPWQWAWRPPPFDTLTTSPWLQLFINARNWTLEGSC
UniProt Q6P4A8: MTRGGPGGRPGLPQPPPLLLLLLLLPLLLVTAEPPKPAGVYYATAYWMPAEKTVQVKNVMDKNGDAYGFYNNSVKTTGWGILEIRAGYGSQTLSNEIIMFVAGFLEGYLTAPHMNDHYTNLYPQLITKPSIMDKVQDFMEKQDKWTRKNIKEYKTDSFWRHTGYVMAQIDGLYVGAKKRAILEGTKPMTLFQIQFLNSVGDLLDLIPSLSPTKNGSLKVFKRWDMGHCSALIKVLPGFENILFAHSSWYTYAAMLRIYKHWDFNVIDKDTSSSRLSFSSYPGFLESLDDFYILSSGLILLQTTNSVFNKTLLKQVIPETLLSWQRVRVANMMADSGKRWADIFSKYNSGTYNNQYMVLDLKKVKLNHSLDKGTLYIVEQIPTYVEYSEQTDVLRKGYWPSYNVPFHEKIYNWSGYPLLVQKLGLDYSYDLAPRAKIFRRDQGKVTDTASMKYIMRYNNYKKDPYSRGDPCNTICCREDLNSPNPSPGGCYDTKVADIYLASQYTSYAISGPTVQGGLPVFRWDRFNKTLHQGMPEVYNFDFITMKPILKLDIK
UniProt Q96S52: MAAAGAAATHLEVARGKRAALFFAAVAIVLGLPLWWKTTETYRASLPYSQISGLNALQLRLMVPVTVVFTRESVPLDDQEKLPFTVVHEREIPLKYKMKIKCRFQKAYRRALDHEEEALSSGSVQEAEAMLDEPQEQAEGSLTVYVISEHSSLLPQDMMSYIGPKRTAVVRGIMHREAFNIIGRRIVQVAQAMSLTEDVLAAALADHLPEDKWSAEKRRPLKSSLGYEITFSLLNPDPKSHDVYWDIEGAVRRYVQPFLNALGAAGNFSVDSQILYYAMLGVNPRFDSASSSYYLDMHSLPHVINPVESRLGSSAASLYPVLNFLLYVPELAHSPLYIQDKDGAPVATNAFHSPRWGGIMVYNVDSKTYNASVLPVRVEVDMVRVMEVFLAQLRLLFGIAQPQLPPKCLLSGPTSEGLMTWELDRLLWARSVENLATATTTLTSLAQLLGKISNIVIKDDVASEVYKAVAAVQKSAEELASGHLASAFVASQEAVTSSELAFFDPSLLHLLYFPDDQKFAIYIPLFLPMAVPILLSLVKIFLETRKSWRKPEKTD
UniProt O60925, whole entry, looked up: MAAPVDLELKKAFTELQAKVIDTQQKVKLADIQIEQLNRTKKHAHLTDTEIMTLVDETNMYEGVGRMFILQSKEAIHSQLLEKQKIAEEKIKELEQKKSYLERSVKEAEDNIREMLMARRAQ
UniProt Q9H814, whole entry, looked up: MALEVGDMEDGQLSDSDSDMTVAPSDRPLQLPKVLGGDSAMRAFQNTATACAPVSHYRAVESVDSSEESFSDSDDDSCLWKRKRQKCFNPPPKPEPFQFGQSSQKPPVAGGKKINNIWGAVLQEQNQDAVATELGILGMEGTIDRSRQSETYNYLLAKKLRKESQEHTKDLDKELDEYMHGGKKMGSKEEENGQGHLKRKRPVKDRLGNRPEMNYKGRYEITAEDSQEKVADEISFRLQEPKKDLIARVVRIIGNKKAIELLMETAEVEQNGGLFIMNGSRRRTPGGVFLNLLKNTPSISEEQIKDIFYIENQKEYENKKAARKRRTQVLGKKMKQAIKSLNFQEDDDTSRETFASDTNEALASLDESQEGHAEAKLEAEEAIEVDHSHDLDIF
UniProt Q16512: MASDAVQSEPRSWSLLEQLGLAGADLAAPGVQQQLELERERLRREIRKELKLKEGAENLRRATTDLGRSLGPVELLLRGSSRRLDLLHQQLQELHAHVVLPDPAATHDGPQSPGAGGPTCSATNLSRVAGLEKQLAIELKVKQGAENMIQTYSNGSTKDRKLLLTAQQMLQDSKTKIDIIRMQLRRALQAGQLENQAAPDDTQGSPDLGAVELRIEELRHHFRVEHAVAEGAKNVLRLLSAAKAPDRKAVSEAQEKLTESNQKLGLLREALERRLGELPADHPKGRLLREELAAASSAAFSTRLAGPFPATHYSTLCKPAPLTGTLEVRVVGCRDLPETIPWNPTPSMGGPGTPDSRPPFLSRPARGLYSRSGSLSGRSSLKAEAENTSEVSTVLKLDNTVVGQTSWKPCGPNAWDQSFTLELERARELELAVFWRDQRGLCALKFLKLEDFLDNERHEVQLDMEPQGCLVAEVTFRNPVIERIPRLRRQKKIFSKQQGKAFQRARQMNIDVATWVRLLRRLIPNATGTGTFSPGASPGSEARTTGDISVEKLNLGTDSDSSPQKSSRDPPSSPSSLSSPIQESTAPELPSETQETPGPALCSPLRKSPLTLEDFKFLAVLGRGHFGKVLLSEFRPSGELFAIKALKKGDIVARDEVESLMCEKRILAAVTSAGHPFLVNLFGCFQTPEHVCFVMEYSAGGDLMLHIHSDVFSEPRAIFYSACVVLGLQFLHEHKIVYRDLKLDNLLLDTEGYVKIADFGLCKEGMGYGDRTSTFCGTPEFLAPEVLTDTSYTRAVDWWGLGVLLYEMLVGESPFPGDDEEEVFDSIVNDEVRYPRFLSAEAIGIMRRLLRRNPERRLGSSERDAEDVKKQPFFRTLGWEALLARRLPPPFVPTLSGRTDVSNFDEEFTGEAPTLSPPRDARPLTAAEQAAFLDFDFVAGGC
UniProt Q9Y5Y5: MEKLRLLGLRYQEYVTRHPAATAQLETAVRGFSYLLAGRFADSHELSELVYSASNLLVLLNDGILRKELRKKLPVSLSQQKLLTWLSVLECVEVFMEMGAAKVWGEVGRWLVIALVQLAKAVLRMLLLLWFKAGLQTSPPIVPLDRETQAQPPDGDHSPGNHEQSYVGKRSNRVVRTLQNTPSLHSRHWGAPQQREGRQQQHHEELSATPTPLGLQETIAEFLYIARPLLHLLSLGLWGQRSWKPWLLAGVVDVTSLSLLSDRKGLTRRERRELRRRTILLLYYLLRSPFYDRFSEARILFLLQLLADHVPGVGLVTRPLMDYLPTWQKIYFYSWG
UniProt P12273: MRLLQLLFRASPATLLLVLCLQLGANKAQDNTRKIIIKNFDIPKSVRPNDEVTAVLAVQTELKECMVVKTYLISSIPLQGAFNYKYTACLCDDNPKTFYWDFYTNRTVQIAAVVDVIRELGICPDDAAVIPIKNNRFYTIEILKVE
UniProt O15173: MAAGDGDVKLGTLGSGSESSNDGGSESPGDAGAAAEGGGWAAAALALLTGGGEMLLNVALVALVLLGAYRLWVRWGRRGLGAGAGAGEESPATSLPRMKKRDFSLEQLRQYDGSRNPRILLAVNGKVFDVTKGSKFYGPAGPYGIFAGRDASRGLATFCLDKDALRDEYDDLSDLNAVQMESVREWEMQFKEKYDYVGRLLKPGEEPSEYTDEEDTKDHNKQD
UniProt Q5H8A4: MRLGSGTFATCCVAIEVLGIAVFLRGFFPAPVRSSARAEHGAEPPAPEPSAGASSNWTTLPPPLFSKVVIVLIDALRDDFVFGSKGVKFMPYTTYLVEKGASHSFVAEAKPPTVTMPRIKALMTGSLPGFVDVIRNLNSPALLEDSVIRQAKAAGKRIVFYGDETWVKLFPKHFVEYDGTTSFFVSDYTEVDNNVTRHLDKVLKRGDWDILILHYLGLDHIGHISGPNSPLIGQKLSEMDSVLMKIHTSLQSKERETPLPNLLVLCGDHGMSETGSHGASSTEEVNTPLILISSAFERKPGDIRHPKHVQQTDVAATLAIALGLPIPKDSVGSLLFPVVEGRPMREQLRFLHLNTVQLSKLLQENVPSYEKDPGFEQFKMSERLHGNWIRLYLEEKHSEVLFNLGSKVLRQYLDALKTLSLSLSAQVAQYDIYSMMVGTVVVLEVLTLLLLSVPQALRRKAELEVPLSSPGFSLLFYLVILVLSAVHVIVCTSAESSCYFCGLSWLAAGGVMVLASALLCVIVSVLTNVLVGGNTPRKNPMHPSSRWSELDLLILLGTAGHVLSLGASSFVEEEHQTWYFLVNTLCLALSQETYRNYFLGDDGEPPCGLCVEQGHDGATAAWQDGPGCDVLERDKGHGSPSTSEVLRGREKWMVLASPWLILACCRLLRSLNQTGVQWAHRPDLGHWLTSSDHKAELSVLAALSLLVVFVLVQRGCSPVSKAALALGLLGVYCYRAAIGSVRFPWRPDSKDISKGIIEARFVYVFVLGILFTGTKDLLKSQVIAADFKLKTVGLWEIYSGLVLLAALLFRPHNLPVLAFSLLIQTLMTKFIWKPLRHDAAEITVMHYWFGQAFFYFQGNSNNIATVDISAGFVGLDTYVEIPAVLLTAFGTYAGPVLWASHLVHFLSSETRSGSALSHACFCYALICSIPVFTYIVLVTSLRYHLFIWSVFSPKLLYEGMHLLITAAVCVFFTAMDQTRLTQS
UniProt Q7RTV0, whole entry, looked up: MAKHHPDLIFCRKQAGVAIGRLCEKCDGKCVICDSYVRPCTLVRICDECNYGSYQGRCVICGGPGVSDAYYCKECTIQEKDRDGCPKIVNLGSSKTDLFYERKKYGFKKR
UniProt Q9NQP4, whole entry, looked up: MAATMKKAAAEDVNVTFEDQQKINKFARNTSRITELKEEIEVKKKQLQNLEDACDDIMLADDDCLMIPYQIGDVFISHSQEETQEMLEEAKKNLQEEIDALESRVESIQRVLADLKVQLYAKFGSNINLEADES
UniProt Q8IZ21: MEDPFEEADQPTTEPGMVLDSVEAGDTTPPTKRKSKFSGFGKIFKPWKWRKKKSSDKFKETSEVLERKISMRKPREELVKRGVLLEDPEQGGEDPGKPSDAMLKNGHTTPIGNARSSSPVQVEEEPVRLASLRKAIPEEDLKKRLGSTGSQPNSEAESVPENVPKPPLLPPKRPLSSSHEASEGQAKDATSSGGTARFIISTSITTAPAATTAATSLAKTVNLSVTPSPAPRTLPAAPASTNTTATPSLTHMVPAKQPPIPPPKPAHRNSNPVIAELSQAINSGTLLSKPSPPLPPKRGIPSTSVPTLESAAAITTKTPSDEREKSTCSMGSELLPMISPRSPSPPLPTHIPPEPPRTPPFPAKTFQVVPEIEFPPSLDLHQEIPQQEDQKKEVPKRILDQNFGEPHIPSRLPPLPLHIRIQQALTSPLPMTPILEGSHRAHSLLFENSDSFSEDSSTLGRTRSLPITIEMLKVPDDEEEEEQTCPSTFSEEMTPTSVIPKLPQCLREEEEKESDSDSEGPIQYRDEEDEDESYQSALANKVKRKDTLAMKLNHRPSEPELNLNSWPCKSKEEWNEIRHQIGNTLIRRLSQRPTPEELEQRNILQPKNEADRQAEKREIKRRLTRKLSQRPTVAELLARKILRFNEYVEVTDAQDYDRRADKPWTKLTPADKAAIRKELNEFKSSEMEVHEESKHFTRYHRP

What was measured:
Assay in all cases: log2 fold change, soluble protein after heating vs DMSO (PISA); higher = thermal stabilisation; K562 cells, 10 uM, 30 min; active = over 0.2 and 3.5 SD of the protein, either way, in both replicates (recomputed)
bafetinib = compound: Cc1ccc(NC(=O)c2ccc(CN3CC[C@H](N(C)C)C3)c(C(F)(F)F)c2)cc1Nc1nccc(-c2cncnc2)n1 [bafetinib]
How it was run: (§1)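 K562 cells at 2×10^6 cells/mL were exposed to 10 μM compound for 30 min, then aliquots were heated for 3 min across 48°C-58°C, pooled, and extracted in PBS containing 0.5% NP-40 at 4°C. The supernatant after 21,000xg for 90 min was taken as soluble protein and measured by TMTpro 16plex LC-MS/MS with channel sums equalised. Thermal stability is reported relative to control samples, with values from duplicates. Fold changes are given on a log2 scale.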

[1] = compound: Cc1cccc(CC(=O)N2CCc3c2ccc(-c2cn(C)c4ncnc(N)c24)c3F)n1
How it was run: as §1

nilotinib = compound: Cc1cn(-c2cc(NC(=O)c3ccc(C)c(Nc4nccc(-c5cccnc5)n4)c3)cc(C(F)(F)F)c2)cn1 [nilotinib]
How it was run: as §1

[2] = compound: Cc1nc(Nc2n[nH]c3c2CN(C(=O)N[C@H](CN(C)C)c2ccccc2)C3(C)C)c2sccc2n1
How it was run: as §1

dasatinib = compound: Cc1nc(Nc2ncc(C(=O)Nc3c(C)cccc3Cl)s2)cc(N2CCN(CCO)CC2)n1 [dasatinib]
How it was run: as §1

[3] = compound: Cc1ncc(-c2ccnc(Nc3ccc(S(C)(=O)=O)cc3)n2)n1C(C)C
How it was run: as §1

[4] = compound: Cn1cc(-c2ccc3c(c2)CCN3C(=O)Cc2cccc(C(F)(F)F)c2)c2c(N)ncnc21
How it was run: as §1

[5] = compound: Cn1cc(-c2ccc3nnc(C(F)(F)c4ccc5ncccc5c4)n3n2)cn1
How it was run: as §1

tipifarnib = compound: Cn1cncc1[C@@](N)(c1ccc(Cl)cc1)c1ccc2c(c1)c(-c1cccc(Cl)c1)cc(=O)n2C [tipifarnib]
How it was run: as §1

mubritinib = compound: FC(F)(F)c1ccc(/C=C/c2nc(COc3ccc(CCCCn4ccnn4)cc3)co2)cc1 [mubritinib]
How it was run: as §1

Target	log2 fold change (bafetinib)	log2 fold change [1]	log2 fold change (nilotinib)	log2 fold change [2]	log2 fold change (dasatinib)	log2 fold change [3]	log2 fold change [4]	log2 fold change [5]	log2 fold change (tipifarnib)	log2 fold change (mubritinib)
PFAS (UniProt O15067)	inactive: 0.033	inactive: 0.311	active: -0.359	inactive: -0.113	inactive: -0.003	inactive: 0.059	active: 0.341	inactive: 0.06	inactive: 0.018	active: 0.52
PLBD1 (UniProt Q6P4A8)	inactive: -0.143	inactive: 0	inactive: 0.021	inactive: -0.029	inactive: -0.063	inactive: -0.035	inactive: 0.041	inactive: 0.081	inactive: 0.038	inactive: 0.052
PIGS (UniProt Q96S52)	inactive: -0.076	inactive: -0.016	inactive: -0.054	inactive: 0.046	inactive: -0.034	inactive: -0.053	inactive: -0.011	inactive: 0	inactive: 0.026	inactive: -0.012
PFDN1 (UniProt O60925)	inactive: 0.038	inactive: -0.041	inactive: 0.012	inactive: 0.026	inactive: 0.076	inactive: -0.023	inactive: 0.153	inactive: 0.328	inactive: -0.061	inactive: 0.039
PIKFYVE (UniProt Q9Y2I7)	inactive: -0.031	inactive: 0.153	inactive: -0.015	inactive: 0.045	inactive: -0.061	inactive: -0.092	inactive: 0.005	inactive: 0.031	inactive: 0.108	inactive: 0.017
PLD1 (UniProt Q13393)	inactive: -0.136	inactive: 0.144	inactive: -0.063	inactive: -0.135	inactive: 0.054	inactive: -0.023	inactive: -0.153	inactive: -0.049	inactive: 0.106	inactive: 0.052
PHAX (UniProt Q9H814)	inactive: -0.056	inactive: -0.117	inactive: 0.028	inactive: -0.176	inactive: 0.03	inactive: -0.096	inactive: -0.033	inactive: 0.006	inactive: 0.011	inactive: 0.013
PKN1 isoform 2 (UniProt Q16512)	inactive: -0.006	inactive: 0.038	inactive: -0.044	active: -0.705	inactive: -0.154	inactive: -0.019	inactive: -0.02	inactive: -0.008	inactive: -0.046	inactive: 0.098
PEX16 isoform 2 (UniProt Q9Y5Y5)	inactive: -0.202	inactive: 0.016	inactive: -0.067	inactive: 0.006	inactive: 0.004	inactive: -0.006	inactive: 0.079	inactive: 0.079	inactive: -0.067	inactive: 0.174
PIP (UniProt P12273)	inactive: 0.704	inactive: -0.117	inactive: -0.121	inactive: 0.102	inactive: -0.075	inactive: 0.5	inactive: 0.516	inactive: 0.234	inactive: -0.319	inactive: -0.569
PI4KB (UniProt Q9UBF8)	inactive: 0.002	inactive: 0.015	inactive: -0.108	inactive: -0.08	inactive: -0.158	inactive: 0.042	inactive: 0.063	inactive: 0.058	inactive: -0.008	inactive: 0.059
PGP (UniProt A6NDG6)	inactive: 0.017	inactive: -0.017	inactive: 0.023	inactive: 0.004	inactive: 0.005	inactive: -0.006	inactive: 0.037	inactive: 0.01	inactive: -0.06	inactive: 0.022
PGRMC2 isoform 2 (UniProt O15173)	inactive: -0.069	inactive: 0	inactive: 0.002	inactive: 0.023	inactive: -0.007	inactive: -0.012	inactive: 0.062	inactive: 0.013	inactive: 0.009	inactive: -0.023
PIGG (UniProt Q5H8A4)	inactive: -0.034	inactive: 0.047	inactive: 0.083	inactive: 0.007	inactive: -0.013	inactive: -0.022	inactive: 0.004	inactive: -0.044	inactive: 0.012	inactive: 0.038
PHF5A (UniProt Q7RTV0)	inactive: -0.097	inactive: -0.047	inactive: -0.018	inactive: 0.012	inactive: 0.102	inactive: 0.086	inactive: -0.031	inactive: 0.03	inactive: 0.031	inactive: -0.025
PLD3 (UniProt Q8IV08)	active: -0.308	inactive: -0.007	inactive: -0.043	inactive: 0.064	inactive: -0.024	inactive: -0.03	inactive: -0.007	inactive: 0.013	inactive: -0.01	inactive: 0.035
PFDN4 (UniProt Q9NQP4)	inactive: -0.016	inactive: 0.044	inactive: 0.006	inactive: 0.005	inactive: 0.024	inactive: 0.002	inactive: -0.043	inactive: 0.034	inactive: 0.078	inactive: 0.035
PICALM (UniProt H0YEY8)	inactive: -0.035	inactive: -0.114	inactive: -0.044	inactive: 0.019	inactive: -0.111	inactive: -0.027	inactive: 0.058	inactive: -0.109	inactive: -0.239	inactive: 0.011
PHACTR2 isoform 4 (UniProt O75167)	inactive: -0.065	inactive: 0.015	inactive: 0.31	inactive: 0.042	inactive: 0.178	inactive: -0.119	inactive: -0.033	inactive: 0.068	inactive: 0.049	inactive: 0.163
PLCD1 isoform 2 (UniProt P51178)	inactive: -0.02	inactive: 0.038	inactive: -0.039	inactive: -0.063	inactive: -0.091	inactive: -0.017	inactive: 0.087	inactive: 0.009	inactive: -0.052	inactive: 0.135
PGGHG (UniProt Q32M88)	inactive: -0.036	inactive: -0.001	inactive: 0.012	inactive: 0.023	inactive: 0.009	inactive: -0.078	inactive: -0.152	inactive: 0.058	inactive: -0.077	inactive: 0.047
PHF3 (UniProt Q92576)	inactive: 0.107	inactive: -0.077	inactive: 0.023	inactive: 0.201	inactive: 0.085	inactive: 0.063	inactive: -0.142	inactive: -0.065	inactive: 0.148	inactive: -0.039
PHACTR4 isoform 2 (UniProt Q8IZ21)	inactive: -0.006	inactive: -0.173	inactive: 0.054	inactive: 0.023	inactive: -0.017	inactive: 0.032	inactive: 0.029	inactive: -0.005	inactive: 0.01	inactive: 0.06
PKLR (UniProt P30613)	inactive: -0.042	inactive: -0.013	inactive: -0.015	inactive: -0.002	inactive: 0.003	inactive: 0.006	inactive: 0.014	inactive: -0.01	inactive: -0.008	inactive: 0.043
PI4KA (UniProt P42356)	inactive: 0.105	inactive: -0.007	inactive: 0.002	inactive: -0.127	inactive: -0.08	inactive: 0.021	inactive: -0.118	inactive: -0.022	inactive: -0.039	inactive: -0.086
PFDN2 (UniProt Q9UHV9)	inactive: -0.045	inactive: -0.021	inactive: 0.003	inactive: -0.004	inactive: 0.024	inactive: -0.021	inactive: 0.014	inactive: 0.023	inactive: 0.017	inactive: 0.047
PIK3R1 (UniProt P27986)	inactive: -0.061	inactive: 0.029	inactive: -0.074	inactive: 0.015	inactive: -0.117	inactive: 0.108	inactive: 0.009	inactive: -0.013	inactive: -0.026	inactive: 0.017

Reformatted comma-delimited: part of the list above.
Target,log2 fold change (bafetinib),log2 fold change [1],log2 fold change (nilotinib),log2 fold change [2],log2 fold change (dasatinib),log2 fold change [3],log2 fold change [4],log2 fold change [5],log2 fold change (tipifarnib),log2 fold change (mubritinib)
PGGHG (UniProt Q32M88),inactive: -0.036,inactive: -0.001,inactive: 0.012,inactive: 0.023,inactive: 0.009,inactive: -0.078,inactive: -0.152,inactive: 0.058,inactive: -0.077,inactive: 0.047
PHF3 (UniProt Q92576),inactive: 0.107,inactive: -0.077,inactive: 0.023,inactive: 0.201,inactive: 0.085,inactive: 0.063,inactive: -0.142,inactive: -0.065,inactive: 0.148,inactive: -0.039
PHACTR4 isoform 2 (UniProt Q8IZ21),inactive: -0.006,inactive: -0.173,inactive: 0.054,inactive: 0.023,inactive: -0.017,inactive: 0.032,inactive: 0.029,inactive: -0.005,inactive: 0.01,inactive: 0.06
PKLR (UniProt P30613),inactive: -0.042,inactive: -0.013,inactive: -0.015,inactive: -0.002,inactive: 0.003,inactive: 0.006,inactive: 0.014,inactive: -0.01,inactive: -0.008,inactive: 0.043
PI4KA (UniProt P42356),inactive: 0.105,inactive: -0.007,inactive: 0.002,inactive: -0.127,inactive: -0.08,inactive: 0.021,inactive: -0.118,inactive: -0.022,inactive: -0.039,inactive: -0.086
PFDN2 (UniProt Q9UHV9),inactive: -0.045,inactive: -0.021,inactive: 0.003,inactive: -0.004,inactive: 0.024,inactive: -0.021,inactive: 0.014,inactive: 0.023,inactive: 0.017,inactive: 0.047
PIK3R1 (UniProt P27986),inactive: -0.061,inactive: 0.029,inactive: -0.074,inactive: 0.015,inactive: -0.117,inactive: 0.108,inactive: 0.009,inactive: -0.013,inactive: -0.026,inactive: 0.017
